The list is a part of this screen's results and no random one: it gathers tests that were run many times, whatever their T/C, doses with no T/C, and many T/C values between a quarter and a half above the control. Other doses and runs of a compound stand elsewhere. T/C gives the treated animals as a percentage of the vehicle group. Some doses have a count of surviving animals in place of a T/C: the source holds a T/C of zero for them, seemingly a mark for toxic or unscored doses. Some survivor counts are full or nearly so, which does not show that the dose was tolerated: the source hardly ever lists a survival T/C far under the control, and the zero likely stands for such cases as well. Survivors were counted at the toxicity check, usually on the fifth day, unless a day is given; later deaths do not show. Schedule codes are those of the source, taken here to give the interval after Q, in days (D) or hours (H), and the number of doses after X. Some entries hold several experiments; the values are given in rising order. Where survival is the endpoint, this PubChem deposit counts one and a half times the control or more as active, and values a quarter to a half above the control carry no call in these data; other NCI protocols may use other cut-offs. Additions like (4×) say how often a value occurs here. Some T/C values carry the count of animals alive at the toxicity check (mostly the fifth day); where none is given, no animal had died by that day.

The test system of this experiment is P1534 leukemia ip, CD2F1 mice, survival T/C. In words: NCI In Vivo Anticancer Drug Screen. Data for tumor model P1534 Leukemia (intraperitoneal) in CD2F1 (CDF1) mice. The note with it: higher T/C = longer survival. On the procedure:
The antitumor activity of compounds was measured in mice bearing transplantable tumors. Survival or tumor size were measured and the results are expressed as the measurement made in the treated group (T) divided by the measurement made in the vehicle treated control group (C). The tumor model used in this assay is P1534 Leukemia (intraperitoneal) in CD2F1 (CDF1) mice

[1] abbreviates: T/C endpoint: mean survival time, dose: 25.0 mg/kg/injection, schedule: Q01DX010 (ip), vehicle: saline.
Setting [2] is: T/C endpoint: mean survival time, dose: 100.0 mg/kg/injection, schedule: Q01DX010 (ip), vehicle: saline.
Setting [3] is: T/C endpoint: mean survival time, dose: 200.0 mg/kg/injection, schedule: Q01DX010 (ip), vehicle: saline.
Where [4] appears, read: T/C endpoint: mean survival time, dose: 6.0 mg/kg/injection, schedule: Q01DX010 (ip), vehicle: saline.
Setting [5] is: T/C endpoint: mean survival time, dose: 6.25 mg/kg/injection, schedule: Q01DX010 (ip), vehicle: water.
Where [6] appears, read: T/C endpoint: mean survival time, dose: 80.0 mg/kg/injection, schedule: Q01DX010 (ip), vehicle: saline.
Where [7] appears, read: T/C endpoint: mean survival time, dose: 6.25 mg/kg/injection, schedule: Q01DX010 (ip), vehicle: saline.
[8] abbreviates: T/C endpoint: mean survival time, dose: 50.0 mg/kg/injection, schedule: Q01DX010 (ip), vehicle: saline.
[9] abbreviates: T/C endpoint: mean survival time, dose: 8.0 mg/kg/injection, schedule: Q01DX010 (ip), vehicle: saline.
The mark [10] stands for this setting: T/C endpoint: mean survival time, dose: 4.0 mg/kg/injection, schedule: Q01DX010 (ip), vehicle: alkali diluted with saline.
The mark [11] stands for this setting: T/C endpoint: mean survival time, dose: 8.0 mg/kg/injection, schedule: Q01DX010 (ip), vehicle: alkali diluted with saline.
The mark [12] stands for this setting: T/C endpoint: mean survival time, dose: 16.0 mg/kg/injection, schedule: Q01DX010 (ip), vehicle: alkali diluted with saline.

In the case of `CCc1c(CC(=O)O)c2cc(C)ccc2n1Cc1ccc(Cl)cc1`, the survivor count was 6 of 6 under setting [1], 5 of 6 under setting [2] and 0 of 6 under setting [3].

Consider `S=P(N1CC1)(N1CC1)N1CC1`, for which the T/C is, setting by setting: (T/C endpoint: mean survival time, dose: 0.75 mg/kg/injection, schedule: Q01DX010 (ip), vehicle: saline) 100 (2×), 110, 113 % of control; (T/C endpoint: mean survival time, dose: 1.5 mg/kg/injection, schedule: Q01DX010 (ip), vehicle: saline) 104, 109, 117, 127 % of control; (T/C endpoint: mean survival time, dose: 1.57 mg/kg/injection, schedule: Q01DX010 (ip), vehicle: water) 108, 109, 113, 116 % of control; (T/C endpoint: mean survival time, dose: 3.0 mg/kg/injection, schedule: Q01DX010 (ip), vehicle: saline) 109 (2×), 134, 144 % of control; (T/C endpoint: mean survival time, dose: 3.13 mg/kg/injection, schedule: Q01DX010 (ip), vehicle: water) 88, 106, 120 % of control (2×); under setting [4], 104 and 109 % of control. Under setting [5], the T/C was 89 % of control. For the same compound, the survivor count was 5 of 6 and 6 of 6 under setting [4]; 6 of 6 under setting [5]; 6 of 6 (T/C endpoint: mean survival time, dose: 12.5 mg/kg/injection, schedule: Q01DX010 (ip), vehicle: water); 2 of 6, 4 of 6, 6 of 6 (T/C endpoint: mean survival time, dose: 25.0 mg/kg/injection, schedule: Q01DX010 (ip), vehicle: water).

Regarding `CCn1cnc2c(=S)nc[nH]c21`, the survivor count by setting is: (T/C endpoint: mean survival time, dose: 62.5 mg/kg/injection, schedule: Q01DX010 (ip), vehicle: saline) 6 of 6; (T/C endpoint: mean survival time, dose: 125.0 mg/kg/injection, schedule: Q01DX010 (ip), vehicle: saline) 6 of 6; (T/C endpoint: mean survival time, dose: 250.0 mg/kg/injection, schedule: Q01DX010 (ip), vehicle: saline) 6 of 6.

As to `CC(=O)N(C)C`, the survivor count (T/C endpoint: mean survival time, dose: 500.0 mg/kg/injection, schedule: Q01DX010 (ip), vehicle: saline) is recorded as 6 of 6.

As to `C[C@]12C=CC(=O)C=C1CC[C@@H]1[C@@H]2[C@@H](O)C[C@@]2(C)[C@H]1CC[C@]2(O)C(=O)CO`, the survivor count by setting is: (T/C endpoint: mean survival time, dose: 50.0 mg/kg/injection, schedule: Q01DX010 (sc), vehicle: steroid suspending solution) 6 of 6; (T/C endpoint: mean survival time, dose: 100.0 mg/kg/injection, schedule: Q01DX010 (sc), vehicle: steroid suspending solution) 6 of 6.

Consider `CN(C)c1ccc(/C=C\c2ccnc3ccccc23)cc1`, for which the survivor count was 6 of 6 (T/C endpoint: mean survival time, dose: 27.0 mg/kg/injection, schedule: Q01DX010 (ip), vehicle: saline) and 6 of 6 (T/C endpoint: mean survival time, dose: 40.0 mg/kg/injection, schedule: Q01DX010 (ip), vehicle: saline).

For the compound `COc1ccc2[nH]c3c(C)c4ccncc4c(C)c3c2c1`, the T/C under setting [6] was 135 % of control.

On to `Cc1cc(N(CCCl)CCCl)ccc1C=Nc1ccccc1-c1ccccc1`, for which the survivor count under setting [3] was 6 of 6.

Consider `CC(C)=CCN=C(N)N`, for which the survivor count is 6 of 6 under setting [7] and 0 of 6 under setting [8].

Take `N=[N+]=CC(=O)OCC(N)C(=O)O` (stereo not given): the T/C is, setting by setting: (T/C endpoint: mean survival time, dose: 1.57 mg/kg/injection, schedule: Q01DX010 (ip), vehicle: saline) 121, 127, 128, 133 % of control; (T/C endpoint: mean survival time, dose: 3.13 mg/kg/injection, schedule: Q01DX010 (ip), vehicle: other) 127 % of control; (T/C endpoint: mean survival time, dose: 3.13 mg/kg/injection, schedule: Q01DX010 (ip), vehicle: saline) 117, 125, 127, 130, 132 % of control; under setting [7], 119, 125, 128, 137, 138 % of control; (T/C endpoint: mean survival time, dose: 12.5 mg/kg/injection, schedule: Q01DX010 (ip), vehicle: saline) 88, 94, 96, 99 % of control; under setting [1], 100 % of control. The survivor count is 6 of 6 (T/C endpoint: mean survival time, dose: 12.5 mg/kg/injection, schedule: Q01DX010 (ip), vehicle: other); 6 of 6 (T/C endpoint: mean survival time, dose: 25.0 mg/kg/injection, schedule: Q01DX010 (ip), vehicle: other); 6 of 6 under setting [1].

For the compound `OCC1OC(n2cnc3c(=S)nc[nH]c32)C(O)C1O` (stereo not given), under setting [6], the T/C is 133 % of control (2×).

`C[n+]1c2ccccc2nc2c(N)cc(N)cc21`: the T/C under setting [9] is 132 % of control; the T/C (T/C endpoint: mean survival time, dose: 12.0 mg/kg/injection, schedule: Q01DX010 (ip), vehicle: saline) is 128 % of control; the T/C (T/C endpoint: mean survival time, dose: 18.0 mg/kg/injection, schedule: Q01DX010 (ip), vehicle: saline) was 125 % of control.

For the compound `NC(Cc1ccc(N(CCCl)CCCl)cc1)C(=O)O` (stereo not given), the T/C is 116, 121, 122, 132 % of control [5 of 6 alive] (T/C endpoint: mean survival time, dose: 2.0 mg/kg/injection, schedule: Q01DX010 (ip), vehicle: alkali diluted with saline); 94, 116, 123 % of control under setting [10]; 92, 99, 106 % of control under setting [11]; 97 and 101 % of control under setting [12]. Moreover, the survivor count under setting [10] is on record as 0 of 6; the survivor count under setting [11] is listed as 6 of 6; the survivor count under setting [12] is reported as 6 of 6; the survivor count (T/C endpoint: mean survival time, dose: 32.0 mg/kg/injection, schedule: Q01DX010 (ip), vehicle: alkali diluted with saline) is 2 of 6, 3 of 6, 6 of 6.

`CC(=O)OC(C)(C)/C=C/C(=O)[C@](C)(O)[C@H]1[C@H](O)C[C@@]2(C)[C@@H]3CC=C4[C@@H](C[C@H](O)C(=O)C4(C)C)[C@]3(C)C(=O)C[C@]12C`: the survivor count (T/C endpoint: mean survival time, dose: 0.57 mg/kg/injection, schedule: Q01DX010 (ip), vehicle: saline) is 6 of 6.

As for `CCCCCCCCCCCCCCCCC(C(=O)O)C(O)(CC(=O)O)C(=O)O` (stereo not given), the survivor count under setting [8] was 5 of 6, the survivor count under setting [2] is 0 of 6 and the survivor count under setting [3] is 0 of 6.

Consider `CN1CC[C@]23c4c5ccc(O)c4O[C@H]2C(=O)CC[C@H]3[C@H]1C5`, for which the survivor count (T/C endpoint: mean survival time, dose: 64.0 mg/kg/injection, schedule: Q01DX010 (ip), vehicle: saline) is listed as 4 of 6.

Consider `OCCN1CCC(CCCC2CCNCC2)CC1`, for which, under setting [2], the survivor count is 0 of 6.

As to `O=[n+]1c2c(n([O-])c3ccccc31)-c1cccc3cccc-2c13`, under setting [3], the survivor count was 5 of 6.

Turning to `N[C@@H](Cc1ccc(N(CCCl)CCCl)cc1)C(=O)O`, the survivor count by setting is: (T/C endpoint: mean survival time, dose: 5.0 mg/kg/injection, schedule: Q01DX010 (ip), vehicle: saline) 6 of 6; (T/C endpoint: mean survival time, dose: 10.0 mg/kg/injection, schedule: Q01DX010 (ip), vehicle: saline) 6 of 6.

With `O=C(NCCCCC(NC(=O)OCc1ccccc1)C(=O)NCCCNCCCCNCCCNC(=O)C(CCCCNC(=O)OCc1ccccc1)NC(=O)OCc1ccccc1)OCc1ccccc1` (stereo not given), where the note is “T/C endpoint: mean survival time, dose: 20.0 mg/kg/injection, schedule: Q01DX010 (ip), vehicle: saline”, the survivor count is 0 of 6.

Consider `O=C(Nc1ccc(C2=NCCCN2)cc1)c1ccc(C(=O)Nc2ccc(C3=NCCCN3)cc2)cc1`, for which the T/C is, setting by setting: (T/C endpoint: mean survival time, dose: 4.0 mg/kg/injection, schedule: Q01DX010 (ip), vehicle: saline) 131 and 136 % of control; under setting [9], 127 % of control.

For the compound `CN(Cc1cnc2nc(N)nc(N)c2n1)c1ccc(C(=O)N[C@@H](CCC(=O)O)C(=O)O)cc1`, under “T/C endpoint: median survival time, dose: 2.0 mg/kg/injection, schedule: Q01DX009 (ip), vehicle: sodium bicarbonate”, the T/C is 134 % of control.

Consider `O=C(C[C@H]1CCC[C@H](CC(=O)c2ccccc2)N1)c1ccccc1`, for which the survivor count under setting [2] is recorded as 0 of 6.

For the compound `COC(=O)C1=COC(C)C2CN3CCc4c([nH]c5cc(OC)c(OC)cc45)C3CC12` (stereo not given), the survivor count (T/C endpoint: mean survival time, dose: 300.0 mg/kg/injection, schedule: Q01DX010 (ip), vehicle: saline) was 6 of 6.

Turning to `C1CCNC1`, the survivor count runs as follows: under setting [8], 5 of 6; under setting [2], 0 of 6.

Consider `C[N+](C)(C)c1ncnc2nc[nH]c12`, for which the survivor count (T/C endpoint: mean survival time, dose: 120.0 mg/kg/injection, schedule: Q01DX010 (ip), vehicle: saline) was 6 of 6.

These data come from PubChem BioAssay AID316 (DTP/NCI, 2004).
